Results published in publication PMC7862700.
The entries are a selection whose mix differs from that of the whole data set. At the low end of the ranking the order means little.

The chains behind the UniProt entries cited, without tags or fusion partners. Where a name states a change or a piece, a line headed by the entry shows the natural chain unless it says otherwise.
UniProt O43186: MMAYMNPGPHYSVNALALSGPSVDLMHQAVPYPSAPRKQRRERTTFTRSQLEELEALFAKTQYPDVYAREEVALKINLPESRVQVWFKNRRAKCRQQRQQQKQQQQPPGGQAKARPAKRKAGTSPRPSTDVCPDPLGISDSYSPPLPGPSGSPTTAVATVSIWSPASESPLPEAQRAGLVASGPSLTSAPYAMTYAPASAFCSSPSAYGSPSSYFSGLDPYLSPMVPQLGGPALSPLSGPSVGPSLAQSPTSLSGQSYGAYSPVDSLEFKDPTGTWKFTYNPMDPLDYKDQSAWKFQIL

What was measured:
Test in all cases: DAPPL (digital affinity profiling via proximity ligation, sequencing)
Details in all cases: 10 mM Tris-HCl pH 7.5, 50 mM NaCl, 1 mM DTT, 4% glycerol, room temperature, 30 min; GST-TFs on glutathione beads, 16-mer random dsDNA library, 0.1% …; high values mean tight binding; double strand, one strand shown; scale: fold enrichment (6-mer frequency, TF over GST control)
CRX = CRX (UniProt O43186)
ELF5 = biological target: T1, ELF5 (UniProt Q9UKW6-2)
T1 sequence: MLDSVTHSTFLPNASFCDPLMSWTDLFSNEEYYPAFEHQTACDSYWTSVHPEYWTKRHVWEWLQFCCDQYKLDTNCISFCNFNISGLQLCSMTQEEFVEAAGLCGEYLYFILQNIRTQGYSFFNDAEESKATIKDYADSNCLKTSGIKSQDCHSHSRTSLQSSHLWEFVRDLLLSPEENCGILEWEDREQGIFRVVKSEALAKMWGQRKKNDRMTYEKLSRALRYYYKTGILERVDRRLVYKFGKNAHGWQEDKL

FEV = biological target: T2, FEV (UniProt Q99581)
T2 sequence: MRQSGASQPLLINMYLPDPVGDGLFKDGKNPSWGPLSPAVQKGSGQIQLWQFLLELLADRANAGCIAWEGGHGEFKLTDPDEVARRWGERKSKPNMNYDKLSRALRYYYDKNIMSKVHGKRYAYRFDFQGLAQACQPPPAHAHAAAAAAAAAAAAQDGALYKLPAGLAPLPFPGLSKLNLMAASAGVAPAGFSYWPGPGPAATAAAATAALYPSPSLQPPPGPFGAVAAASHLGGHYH

| Sequence | binding signal (CRX) | binding signal (ELF5) | binding signal (FEV) |
| --- | --- | --- | --- |
| CGGACA | 0.452 | 0.82 | – |
| GGCGCT | 0.676 | 0.714 | 0.703 |
| GTGGGC | 0.509 | 0.672 | 0.727 |
| GGTACC | 0.497 | 0.799 | 0.797 |
| GCCCGT | 0.488 | 0.597 | 0.619 |
| GGCCAC | 0.683 | 0.927 | – |
| GCATCG | 0.659 | 0.726 | 0.78 |
| GACGGC | 0.603 | 0.707 | 0.74 |
| GTCGGT | 0.202 | 0.286 | 0.285 |
| AGGACT | 0.929 | 0.954 | – |
| GGTGGA | 0.526 | 0.593 | 0.541 |
| AGTCGT | 0.318 | 0.402 | 0.386 |
| GACTCA | 0.885 | 0.973 | – |
| GCGAGC | 0.707 | 0.795 | 0.892 |
| TGGCGG | 0.573 | 0.753 | 0.803 |
| GGACCG | 0.563 | 0.808 | – |
| GCACGT | 0.661 | 0.772 | 0.81 |
| CATGTG | 0.672 | 0.737 | 0.777 |
| CGGTAC | 0.582 | – | – |
| AGCCGT | 0.496 | 0.46 | 0.484 |
| CAGTGA | 0.312 | 0.319 | 0.337 |
| AGGGAC | 0.61 | 0.722 | 0.806 |

Record cards, as listed above. Values in the order: binding signal (CRX)	binding signal (ELF5)	binding signal (FEV)
AGTCGT is entered as 0.318	0.402	0.386
GGACCG is entered as 0.563	0.808	–
GGCCAC is entered as 0.683	0.927	–

The listing continues:

| Sequence | binding signal (CRX) | binding signal (ELF5) | binding signal (FEV) |
| --- | --- | --- | --- |
| GAACGT | 0.391 | 0.394 | 0.396 |
| AGAGTG | 0.528 | 0.6 | 0.668 |
| CCGTCG | 0.596 | 0.818 | 0.775 |
| GACAAA | 0.836 | 0.945 | 0.983 |
| AGTGGA | 0.686 | 0.791 | 0.759 |
| TCAGGC | 0.747 | 0.711 | 0.689 |
| TTGGAC | 0.863 | 0.908 | 0.947 |
| CAACGT | 0.661 | 0.811 | 0.861 |
| GCAGAC | 0.485 | 0.734 | 0.72 |
| CGGTCC | 0.566 | 0.9 | – |
| TGTCGA | 0.7 | 0.807 | 0.756 |
| CGGTGT | 0.466 | 0.677 | 0.768 |
| ATCGGC | 0.805 | 0.609 | 0.652 |
| CGGCCG | 0.584 | 0.764 | – |
| GGGTAG | 0.505 | 0.653 | 0.622 |
| GGTGTC | 0.479 | 0.725 | 0.786 |
| AGCACC | 0.759 | 0.868 | 0.925 |
| CGTGAA | 0.381 | 0.459 | 0.435 |
| GACGTG | 0.238 | 0.327 | 0.336 |
| GTTAGT | 0.749 | 0.756 | 0.72 |
| ACGGGC | 0.645 | 0.758 | 0.826 |
| GGGAGG | 0.235 | 0.301 | 0.297 |
